From patent US20070207155A1
No constants are given. Whether binding was seen depends on the method and setting. Some results given as binding are weak or reduced against the parent protein; the word gives no strength.

By UniProt entry, the sequences of proteins in these tests, tags left out. Where a name states a change or a piece, a line headed by the entry shows the natural chain unless it says otherwise. Chains listed by the source or under a name are the forms on record and can include a tag or linker. Residues count along the entry.
human platelet membrane glycoprotein VI (GPVI) (Q9HCN6, residues 21-339): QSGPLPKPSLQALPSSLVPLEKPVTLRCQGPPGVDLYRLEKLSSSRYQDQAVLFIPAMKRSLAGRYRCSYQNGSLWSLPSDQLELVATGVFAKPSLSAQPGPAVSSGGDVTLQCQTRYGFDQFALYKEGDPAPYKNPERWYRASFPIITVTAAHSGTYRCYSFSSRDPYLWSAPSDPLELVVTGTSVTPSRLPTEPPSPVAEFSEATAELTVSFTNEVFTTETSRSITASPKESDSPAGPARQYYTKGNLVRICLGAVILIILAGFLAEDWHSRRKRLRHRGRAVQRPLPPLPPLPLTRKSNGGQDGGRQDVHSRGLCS
recombinant soluble GPVI (ectodomain of human GPVI, residues 22-219, with V5 and His×6 tags) (Q9HCN6, form named): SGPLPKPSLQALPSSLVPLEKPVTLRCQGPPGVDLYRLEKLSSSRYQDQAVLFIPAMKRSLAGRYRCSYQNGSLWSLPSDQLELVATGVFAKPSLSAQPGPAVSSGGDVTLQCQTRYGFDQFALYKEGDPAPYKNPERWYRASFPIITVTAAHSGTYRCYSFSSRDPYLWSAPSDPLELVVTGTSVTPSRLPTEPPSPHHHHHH

How the values were obtained:
[1] = molecular target: human platelet membrane glycoprotein VI (GPVI) (human) (UniProt Q9HCN6); test: FACS on CHO cells stably expressing human GPVI and FcRγ
[2] = molecular target: recombinant soluble GPVI (ectodomain of human GPVI, residues 22-219, with V5 and His×6 tags) (human) (UniProt Q9HCN6); test: Western blot and ELISA
[3] = molecular target: human platelet membrane glycoprotein VI (GPVI) (human) (UniProt Q9HCN6); test: Western blot of human platelet lysate, biotinylated convulxin

Measured: binding

B1: convulxin (ligand)
chain 1: GLHCPSDWYYYDQHCYRIFNEEMNWEDAEWFCTKQAKGAHLVSIKSAKEADFVAWMVTQNIEESFSHVSIGLRVQNKEKQCSTKWSDGSSVSYDNLLDLYITKCSLLKKETGFRKWFVASCIGKIPFVCKFPPQC
chain 2: GFCCPSHWSSYDRYCYKVFKQEMTWADAEKFCTQQHTGSHLVSFHSTEEVDFVVKMTHQSLKSTFFWIGANNIWNKCNWQWSDGTKPEYKEWHEEFECLISRTFDNQWLSAPCSDTYSFVCKFEA
modifications: biotinylated (Western blot, ELISA) or FITC-labeled (FACS); sites not stated
binds: all assays above
